According to patent US6265537A (Bayer Aktiengesellschaft, priority 1997, dated 2001):

Assay: general procedure: solution-phase peptide synthesis
Settings: late stage modification step, of theory

## cyclo (-N-mehtyl-L-leucyl-D-thiolactyl-N-methyl-L-leucyl-D-4-(fur-2-yl-methoxy)- phenylthiolactyl-N-methyl-L-leucyl-D-thiolactyl-N-methyl-L-leucyl-D-phenylthiolactyl-)
  step yield: 26.6% of theory

## cyclo(-N-methyl-L-leucyl-D-thiolactyl-N-methyl-L-leucyl-D-4-N-morpholinophenyllactyl-N-methyl-L-leucyl-D-lactyl-N-methyl-L-leucyl-D4-N-morpholinophenyllactyl-)
  step yield: 16.8% of theory

## cyclo(-N-methyl-L-leucyl-D-thiolactyl-N-methyl-L-leucyl-D-phenyllactyl-N-methyl-L-leucyl-D-lactyl-N-methyl-L-leucyl-D-phenyllactyl-)
  step yield: 11.8% of theory

## cyclo(-N-methyl-L-leucyl-D-thiolactyl-N-methyl-Leucyl-D-4-nitrophenyllactyl-N-methyl-L-leucyl-D-lactyl-N-methyl-L-leucyl-D-4-nitrophenyllactyl-)
  step yield: 3.1% of theory

## cyclo(-N-methyl-L-leucyl-D-thiolactyl-N-methyl-L-leucyl-D4-(fur-2-yl-methoxy)-phenyllactyl-N-metbyl-L-leucyl-D-lactyl-N-metbyl-L-leucyl-D-phenyllactyl-)
  step yield: 11.4% of theory

## cyclo (-N-methyl-L-leucyl-D-thiolactyl-N-methyl-L-leucyl-D4-(pyrid-2-yl-methoxy)-phenylthiolactyl-N-methyl-L-leucyl-D-thiolactyl-N-methyl-L-leucyl-D-4-(pyrid-2-yl-methoxy)-phenylthiolactyl-)
  step yield: 30.9% of theory

## cyclo(-N-methyl-L-leucyl-D-thiolactyl-N-methyl-L-leucyl-D-phenylthiolactyl-N-methyl-L-leucyl-D-thiolactyl-N-methyl-L-leucyl-D-phenylthiolactyl-)
  step yield: 43.6% of theory

## cyclo(-N-methyl-L-leucyl-D-thiolactyl-N-methyl-L-leucyl-D-4-(fur-2-yl-methoxy)-phenyllactyl-N-methyl-L-leucyl-D-lactyl-N-methyl-L-leucyl-D-4-(fur-2-yl-methoxy)-phenyllactyl-)
  step yield: 27.3% of theory

## cyclo(-N-methyl-L-leucyl-D-thiolactyl-N-methyl-L-leucyl-D-4-nitrophenylthiolactyl-N-methyl-L-leucyl-D-thiolactyl-N-methyl-L-leucyl-D-4-nitrophenylthiolactyl-)
  step yield: 63.8% of theory

## cyclo(-N-methyl-L-leucyl-D-thio-lactyl-N-methyl-L-leucyl-D4-N-morpholino-phenylthiolactyl-N-methyl-L-leucyl-D-thiolactyl-N-methyl-L-leucyl-D-4-N-morpholinophenylthiolactyl-)
  step yield: 70.0% of theory

## cyclo (-N-methyl-L-leucyl-D-thiolactyl-N-methyl-L-leucyl-D4-(fur-2-yl-methoxy)-phenylthiolactyl-N-methyl-L-leucyl-D-thiolactyl-N-methyl-L-leucyl-D-4-(fur-2-yl-methoxy)-phenylthiolactyl-)
  step yield: 22.7% of theory
